From the supplement of paper PMC12823440, “Inhibitors supercharge kinase turnover through native proteolytic circuits” (Nature, 2025)
This is one part of the list. The calls rarely recur for the same compound in another form.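 Kinases were expressed as nanoluciferase fusions in K562 cells and luminescence was read every 4 h between 2 and 18 h as percent of control, DMSO set to 100% and a positive control to 0%. A time point counts as decreased when the signal drops significantly (2 sigma). The hit call is the authors' own, does not follow from the count of time points alone, and its rule is not shown.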

Protein sequences, listed by entry. Tags and fused reporters are not part of them. Lines headed by an entry give the natural chain unless they say otherwise; changes in a name come on top.
UniProt P36888, whole entry: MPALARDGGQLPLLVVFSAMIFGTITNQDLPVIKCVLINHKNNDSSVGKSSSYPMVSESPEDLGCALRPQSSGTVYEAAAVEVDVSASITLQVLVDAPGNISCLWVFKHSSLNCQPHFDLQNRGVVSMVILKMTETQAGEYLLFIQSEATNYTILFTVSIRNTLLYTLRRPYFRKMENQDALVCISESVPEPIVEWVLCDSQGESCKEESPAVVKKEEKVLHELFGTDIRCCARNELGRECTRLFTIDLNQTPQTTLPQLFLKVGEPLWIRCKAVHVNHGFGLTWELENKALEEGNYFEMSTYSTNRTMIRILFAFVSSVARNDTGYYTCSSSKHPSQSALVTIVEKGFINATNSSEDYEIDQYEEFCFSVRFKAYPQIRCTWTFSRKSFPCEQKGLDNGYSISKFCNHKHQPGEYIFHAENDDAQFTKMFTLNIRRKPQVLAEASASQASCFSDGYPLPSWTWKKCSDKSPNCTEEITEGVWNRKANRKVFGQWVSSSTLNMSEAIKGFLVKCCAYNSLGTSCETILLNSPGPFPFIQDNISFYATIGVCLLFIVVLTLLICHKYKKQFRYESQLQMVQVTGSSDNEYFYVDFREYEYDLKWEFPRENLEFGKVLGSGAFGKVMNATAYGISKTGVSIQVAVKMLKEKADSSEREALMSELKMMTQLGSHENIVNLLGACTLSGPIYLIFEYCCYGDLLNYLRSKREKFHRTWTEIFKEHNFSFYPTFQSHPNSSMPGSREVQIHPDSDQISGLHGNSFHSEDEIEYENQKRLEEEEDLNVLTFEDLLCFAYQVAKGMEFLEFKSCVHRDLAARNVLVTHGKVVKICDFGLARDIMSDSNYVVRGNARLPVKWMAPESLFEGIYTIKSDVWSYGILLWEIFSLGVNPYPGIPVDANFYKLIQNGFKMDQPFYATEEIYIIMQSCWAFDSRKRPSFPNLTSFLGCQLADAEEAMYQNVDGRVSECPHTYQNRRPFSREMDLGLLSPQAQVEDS
UniProt P14616: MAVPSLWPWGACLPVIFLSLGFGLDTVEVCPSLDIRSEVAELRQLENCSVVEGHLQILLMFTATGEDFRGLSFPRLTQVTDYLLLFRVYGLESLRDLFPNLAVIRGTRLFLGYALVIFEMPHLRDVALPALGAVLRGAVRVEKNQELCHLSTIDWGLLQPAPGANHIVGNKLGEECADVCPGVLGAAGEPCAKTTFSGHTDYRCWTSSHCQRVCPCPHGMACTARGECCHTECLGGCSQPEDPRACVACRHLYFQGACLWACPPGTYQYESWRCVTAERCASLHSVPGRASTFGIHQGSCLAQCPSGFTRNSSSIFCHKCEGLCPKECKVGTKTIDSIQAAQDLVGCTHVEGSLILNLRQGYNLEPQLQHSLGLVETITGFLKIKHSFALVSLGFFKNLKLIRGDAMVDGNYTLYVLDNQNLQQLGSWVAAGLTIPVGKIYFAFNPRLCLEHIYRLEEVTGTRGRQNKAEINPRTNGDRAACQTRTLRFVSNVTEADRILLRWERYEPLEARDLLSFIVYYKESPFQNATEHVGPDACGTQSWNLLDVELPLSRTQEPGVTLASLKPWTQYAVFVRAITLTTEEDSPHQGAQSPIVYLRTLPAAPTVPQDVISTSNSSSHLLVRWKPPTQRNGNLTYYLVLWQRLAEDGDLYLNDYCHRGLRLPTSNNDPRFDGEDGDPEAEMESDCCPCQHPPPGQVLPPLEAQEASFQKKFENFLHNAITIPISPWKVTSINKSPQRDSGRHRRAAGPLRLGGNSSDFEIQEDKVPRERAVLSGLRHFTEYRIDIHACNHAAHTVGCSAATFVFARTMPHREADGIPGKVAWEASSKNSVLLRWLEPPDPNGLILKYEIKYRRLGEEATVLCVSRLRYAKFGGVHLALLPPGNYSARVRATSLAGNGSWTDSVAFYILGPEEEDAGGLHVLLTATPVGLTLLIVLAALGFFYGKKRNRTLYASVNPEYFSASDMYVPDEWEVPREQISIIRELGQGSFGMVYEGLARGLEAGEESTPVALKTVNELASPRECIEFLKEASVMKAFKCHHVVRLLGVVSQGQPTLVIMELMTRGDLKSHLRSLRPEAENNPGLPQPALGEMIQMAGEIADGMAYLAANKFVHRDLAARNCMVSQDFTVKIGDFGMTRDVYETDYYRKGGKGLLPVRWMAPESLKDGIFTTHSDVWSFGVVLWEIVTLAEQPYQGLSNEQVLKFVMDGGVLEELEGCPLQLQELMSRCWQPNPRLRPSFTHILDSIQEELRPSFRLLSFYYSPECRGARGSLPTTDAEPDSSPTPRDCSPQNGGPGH
UniProt P23458: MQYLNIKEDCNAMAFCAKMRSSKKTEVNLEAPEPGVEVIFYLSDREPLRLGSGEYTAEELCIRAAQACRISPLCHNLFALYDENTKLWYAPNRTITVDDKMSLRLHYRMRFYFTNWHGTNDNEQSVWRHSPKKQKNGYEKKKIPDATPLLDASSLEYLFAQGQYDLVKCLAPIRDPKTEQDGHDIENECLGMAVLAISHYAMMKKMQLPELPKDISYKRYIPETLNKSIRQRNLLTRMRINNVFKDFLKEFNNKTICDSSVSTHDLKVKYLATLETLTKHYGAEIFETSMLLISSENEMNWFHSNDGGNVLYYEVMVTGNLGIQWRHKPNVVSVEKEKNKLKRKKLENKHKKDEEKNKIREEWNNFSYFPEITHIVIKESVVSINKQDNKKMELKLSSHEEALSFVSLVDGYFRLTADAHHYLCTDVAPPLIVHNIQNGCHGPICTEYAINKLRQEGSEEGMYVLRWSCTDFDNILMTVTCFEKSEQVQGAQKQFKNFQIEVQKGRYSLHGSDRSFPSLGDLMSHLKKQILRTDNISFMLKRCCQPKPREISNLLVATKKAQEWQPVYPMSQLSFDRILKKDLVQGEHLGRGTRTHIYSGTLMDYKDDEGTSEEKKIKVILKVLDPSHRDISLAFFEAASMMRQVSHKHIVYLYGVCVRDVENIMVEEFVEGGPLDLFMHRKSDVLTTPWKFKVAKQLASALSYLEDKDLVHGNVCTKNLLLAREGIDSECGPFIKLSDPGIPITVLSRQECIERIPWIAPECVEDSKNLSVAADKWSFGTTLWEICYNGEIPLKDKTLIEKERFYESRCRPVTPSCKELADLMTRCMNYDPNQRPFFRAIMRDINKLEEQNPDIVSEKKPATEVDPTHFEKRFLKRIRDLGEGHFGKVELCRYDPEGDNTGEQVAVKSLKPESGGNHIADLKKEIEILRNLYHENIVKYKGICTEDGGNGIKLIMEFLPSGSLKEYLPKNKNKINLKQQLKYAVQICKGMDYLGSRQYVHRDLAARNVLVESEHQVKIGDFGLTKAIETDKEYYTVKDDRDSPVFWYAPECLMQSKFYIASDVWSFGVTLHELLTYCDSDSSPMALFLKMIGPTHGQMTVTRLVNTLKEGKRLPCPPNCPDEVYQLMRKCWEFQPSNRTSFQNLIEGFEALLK
UniProt P53667: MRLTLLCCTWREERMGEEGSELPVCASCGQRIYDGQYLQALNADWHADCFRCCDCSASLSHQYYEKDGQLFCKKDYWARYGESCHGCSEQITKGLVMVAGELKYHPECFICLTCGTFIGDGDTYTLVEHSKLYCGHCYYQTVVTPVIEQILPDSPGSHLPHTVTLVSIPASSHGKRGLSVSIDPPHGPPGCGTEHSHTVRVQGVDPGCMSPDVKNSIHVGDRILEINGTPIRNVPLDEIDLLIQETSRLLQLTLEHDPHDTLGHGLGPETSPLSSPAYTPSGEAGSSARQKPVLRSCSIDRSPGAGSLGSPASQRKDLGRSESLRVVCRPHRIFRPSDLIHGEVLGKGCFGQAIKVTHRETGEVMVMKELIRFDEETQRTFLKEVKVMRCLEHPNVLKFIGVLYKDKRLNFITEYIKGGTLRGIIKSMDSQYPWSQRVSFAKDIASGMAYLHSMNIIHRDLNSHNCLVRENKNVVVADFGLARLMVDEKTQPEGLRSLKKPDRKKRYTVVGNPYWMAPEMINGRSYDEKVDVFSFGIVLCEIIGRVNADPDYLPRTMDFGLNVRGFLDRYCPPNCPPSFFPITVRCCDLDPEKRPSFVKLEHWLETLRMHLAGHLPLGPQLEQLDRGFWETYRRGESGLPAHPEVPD
UniProt Q12851: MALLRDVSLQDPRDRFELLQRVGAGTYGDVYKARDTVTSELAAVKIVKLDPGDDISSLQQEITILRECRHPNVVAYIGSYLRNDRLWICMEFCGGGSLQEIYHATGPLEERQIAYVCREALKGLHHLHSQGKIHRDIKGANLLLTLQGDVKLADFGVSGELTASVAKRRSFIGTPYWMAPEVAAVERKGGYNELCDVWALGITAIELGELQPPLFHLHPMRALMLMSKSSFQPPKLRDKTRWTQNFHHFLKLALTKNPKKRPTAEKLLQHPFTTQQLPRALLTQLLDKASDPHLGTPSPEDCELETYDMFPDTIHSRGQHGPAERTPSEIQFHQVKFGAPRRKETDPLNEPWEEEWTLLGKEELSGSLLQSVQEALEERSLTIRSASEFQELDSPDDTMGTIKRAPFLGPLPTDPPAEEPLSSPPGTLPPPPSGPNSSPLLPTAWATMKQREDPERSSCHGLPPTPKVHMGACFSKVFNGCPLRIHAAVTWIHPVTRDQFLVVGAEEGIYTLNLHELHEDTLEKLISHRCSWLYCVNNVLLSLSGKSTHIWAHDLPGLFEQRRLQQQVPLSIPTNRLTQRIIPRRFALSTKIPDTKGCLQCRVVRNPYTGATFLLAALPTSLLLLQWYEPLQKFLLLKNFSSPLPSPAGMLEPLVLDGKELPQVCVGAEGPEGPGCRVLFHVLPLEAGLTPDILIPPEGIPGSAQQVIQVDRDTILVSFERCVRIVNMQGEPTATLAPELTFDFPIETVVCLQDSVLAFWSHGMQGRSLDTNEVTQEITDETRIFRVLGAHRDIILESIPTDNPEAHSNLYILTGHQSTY
UniProt P49137, whole entry, looked up: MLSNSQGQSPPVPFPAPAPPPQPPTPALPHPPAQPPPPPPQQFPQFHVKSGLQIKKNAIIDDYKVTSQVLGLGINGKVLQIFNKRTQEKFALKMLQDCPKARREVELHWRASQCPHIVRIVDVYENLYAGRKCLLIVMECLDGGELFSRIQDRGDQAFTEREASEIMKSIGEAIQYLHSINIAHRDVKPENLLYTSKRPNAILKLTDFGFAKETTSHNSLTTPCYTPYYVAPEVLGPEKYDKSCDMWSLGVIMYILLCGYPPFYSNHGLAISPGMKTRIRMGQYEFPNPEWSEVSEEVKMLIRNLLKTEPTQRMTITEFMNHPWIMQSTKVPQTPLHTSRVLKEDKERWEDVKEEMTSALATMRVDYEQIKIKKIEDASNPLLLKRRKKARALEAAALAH
UniProt Q9BUB5: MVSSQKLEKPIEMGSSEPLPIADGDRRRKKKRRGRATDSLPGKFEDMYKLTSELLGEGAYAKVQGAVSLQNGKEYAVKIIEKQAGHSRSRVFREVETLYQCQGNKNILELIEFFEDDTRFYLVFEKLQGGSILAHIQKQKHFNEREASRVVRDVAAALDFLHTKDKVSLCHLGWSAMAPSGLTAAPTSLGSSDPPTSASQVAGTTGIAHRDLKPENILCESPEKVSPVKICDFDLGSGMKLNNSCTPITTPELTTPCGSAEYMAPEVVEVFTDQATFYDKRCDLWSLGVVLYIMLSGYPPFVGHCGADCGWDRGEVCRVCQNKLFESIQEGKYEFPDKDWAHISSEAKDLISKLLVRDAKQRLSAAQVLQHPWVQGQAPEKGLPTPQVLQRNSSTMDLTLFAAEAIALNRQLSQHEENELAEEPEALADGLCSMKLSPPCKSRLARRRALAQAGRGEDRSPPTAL
UniProt Q16620, whole entry, looked up: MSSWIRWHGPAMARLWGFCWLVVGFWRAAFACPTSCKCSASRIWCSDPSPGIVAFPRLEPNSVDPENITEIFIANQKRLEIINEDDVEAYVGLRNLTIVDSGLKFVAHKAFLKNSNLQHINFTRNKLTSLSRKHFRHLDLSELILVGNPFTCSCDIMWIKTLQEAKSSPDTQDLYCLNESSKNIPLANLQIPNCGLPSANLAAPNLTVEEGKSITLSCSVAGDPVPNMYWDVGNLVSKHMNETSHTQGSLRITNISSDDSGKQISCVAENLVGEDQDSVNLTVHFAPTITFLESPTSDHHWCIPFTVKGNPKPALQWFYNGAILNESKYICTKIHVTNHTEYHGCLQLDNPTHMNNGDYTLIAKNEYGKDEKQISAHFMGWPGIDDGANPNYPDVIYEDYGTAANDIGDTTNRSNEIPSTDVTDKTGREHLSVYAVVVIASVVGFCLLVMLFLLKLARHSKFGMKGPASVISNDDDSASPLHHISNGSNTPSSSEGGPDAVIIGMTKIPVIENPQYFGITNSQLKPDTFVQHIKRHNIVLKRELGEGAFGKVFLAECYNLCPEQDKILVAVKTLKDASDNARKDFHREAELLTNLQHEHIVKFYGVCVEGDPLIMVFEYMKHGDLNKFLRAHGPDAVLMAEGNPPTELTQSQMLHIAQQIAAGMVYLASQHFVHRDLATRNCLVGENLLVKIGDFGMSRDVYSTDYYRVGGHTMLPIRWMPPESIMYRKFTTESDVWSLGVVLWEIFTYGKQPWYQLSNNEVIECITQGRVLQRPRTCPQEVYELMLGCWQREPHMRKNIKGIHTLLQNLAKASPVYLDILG

Tests used:
Assay in all cases: number of time points (of 5) at which kinase-Nluc abundance scored as decreased, DMSO-normalised (count); higher = more persistent destabilization
Details in all cases: K562; 2-18 h
FLT3 = FLT3 (UniProt P36888)
FYN = FYN (UniProt P06241)
GSK3A = GSK3A (UniProt P49840)
HER2 = HER2 (UniProt P04626)
INSRR = INSRR (UniProt P14616)
IRAK3 = IRAK3 (UniProt Q9Y616)
JAK1 = JAK1 (UniProt P23458)
LCK = LCK (UniProt P06239)
LIMK1 = LIMK1 (UniProt P53667)
LIMK2 = LIMK2 (UniProt P53671)
LMTK2 = LMTK2 (UniProt Q8IWU2)
LYN = LYN (UniProt P07948)
MAP2K1 = MAP2K1 (UniProt Q02750)
MAP2K2 = MAP2K2 (UniProt P36507)
MAP4K2 = MAP4K2 (UniProt Q12851)
MAPK1 = MAPK1 (UniProt P28482)
MAPK4 = MAPK4 (UniProt P31152)
MAPKAPK2 = MAPKAPK2 (UniProt P49137)
MKNK1 = MKNK1 (UniProt Q9BUB5)
NTRK2 = NTRK2 (UniProt Q16620)

Measured: number of time points

C[C@@H]1CN(Cc2ccc(F)cc2)[C@@H](C)CN1C(=O)c1cc2c(C(=O)C(=O)N(C)C)cn(C)c2cc1Cl [Talmapimod] (10 µM)
0: all assays above

O=C1Cc2ccccc2N1 [Oxindole] (10 µM)
0: all assays above

O=c1c(O)c(-c2ccc(O)c(O)c2)oc2cc(O)c(O)c(O)c12 [Quercetagetin] (10 µM)
0: all assays above

CN(C)c1cc[n+](Cc2ccc(OCCOc3ccc(C[n+]4ccc(N(C)C)cc4)cc3)cc2)cc1 (10 µM)
0: all assays above

Pulled one by one from above, two records:
O=C1Cc2ccccc2N1 [Oxindole] (10 µM)
0: all assays above

CN(C)c1cc[n+](Cc2ccc(OCCOc3ccc(C[n+]4ccc(N(C)C)cc4)cc3)cc2)cc1 (10 µM)
0: all assays above

Next structures follow:

COc1c(O)cc(O)c2c(=O)cc(-c3ccccc3)oc12 [Wogonin] (10 µM)
5: FLT3
0: all other assays above

Nc1ccc(-c2nc3ccc(-c4nc5ccc(N)cc5[nH]4)cc3[nH]2)cc1 (10 µM)
1: MAPK4
0: all other assays above

CNCCOc1ccccc1C1(Nc2nccn(-c3cc(C(=O)NC4CC4)cc(F)c3C)c2=O)CC1 (10 µM)
0: all assays above

Nc1nc(Nc2ccc3c(c2)CC[C@@H](N2CCCC2)CC3)nn1-c1cc2c(nn1)-c1ccccc1CCC2 [Bemcentinib] (2.5 µM)
0: all assays above

Cc1nc(NC(=O)N2CCC[C@H]2C(N)=O)sc1-c1ccnc(C(C)(C)C(F)(F)F)c1 [Alpelisib] (2.5 µM)
0: all assays above

CN(C[C@@H]1COCCO1)S(=O)(=O)Nc1ccc2ccc3ncc(-c4cnn(C)c4)cc3c(=O)c2c1 (2.5 µM)
0: all assays above

CN1CCN(c2ccc(-c3ccncc3-c3cc(F)c(O)c(F)c3)cc2)CC1 (10 µM)
0: all assays above

O=C1OC(COc2ccccc2[N+](=O)[O-])CC1Cc1ccccc1 (stereo not given) (10 µM)
0: all assays above

CC1(C)CN(C(=O)c2ccc(-c3cccc4nc(NC(=O)C5CC5)nn34)cc2)C1 [Solcitinib] (10 µM)
0: all assays above

N#Cc1cc(N2CCC(C(=O)N3N=CC[C@H]3c3cc(F)cc(F)c3)CC2)ncn1 (10 µM)
0: all assays above

CCn1c(N)c(C(=O)NC)c(=O)c2ccc(C#CC(C)(O)COC)nc21 (stereo not given) (10 µM)
0: all assays above

COc1ccc(CN2CCC(c3ccc4nc(C(=O)N5CCN(Cc6ccc(C(F)(F)F)cc6)CC5)[nH]c4c3)CC2)cn1 (2.5 µM)
3: LMTK2
2: IRAK3
1: FYN | MKNK1
0: all other assays above

Cc1cc2c(F)c(Oc3ncnn4cc(OC[C@@H](C)OC(=O)[C@H](C)N)c(C)c34)ccc2[nH]1 [Brivanib (alaninate)] (10 µM)
0: all assays above

CC(=O)Nc1nc(C)c(-c2cc(C)c3c(c2)CN([C@@H](C)C2CC2)C3=O)s1 (10 µM)
0: all assays above

O=[N+]([O-])c1ccc(-c2nc(-c3ccc(F)cc3)c(-c3ccncc3)[nH]2)cc1 (10 µM)
0: all assays above

COCCOc1cnc2ccn([C@H](C)c3nnc4c(F)cc(-c5cnn(C)c5)cn34)c(=O)c2c1 (10 µM)
0: all assays above

COc1cc(N2CCC(O)CC2)ccc1Nc1nc(Nc2ccccc2S(=O)(=O)C(C)C)c2[nH]cnc2n1 (10 µM)
0: all assays above

COCCNc1cc(NC(=O)N2CCCc3cc(CN4CCOCC4=O)c(C=O)nc32)ncc1C#N (10 µM)
0: all assays above
